This note sets out measurements from patent US20150322149A1.

Protein sequences, listed by entry. Tags and fused reporters are not part of them. Residues count along the entry.
UniProt P05067, residues 672-713: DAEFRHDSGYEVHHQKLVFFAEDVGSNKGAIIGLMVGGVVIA

For assay [1], the target named is Abeta in amyloid plaques of APP transgenic mouse brain cryosections (UniProt P05067). Kind of assay: immunofluorescence staining of 18-month brain cryosections.
For assay [2] the target is unchanged. The assay is described as follows: immunofluorescence staining of 18-month APP transgenic mouse brain cryosections.

Results are given in words; binding and its absence hold for the method and conditions named. Some entries that bind do so weakly or less than the wild type.

B1: mAb31 (human monoclonal antibody recognizing Abeta; INN Gantenerumab) (antibody, V domains shown)
VH: QVELVESGGGLVQPGGSLRLSCAASGFTFSSYAMSWVRQAPGKGLEWVSAINASGTRTYYADSVKGRFTISRDNSKNTLYLQMNSLRAEDTAVYYCARGKGNTHKPYGYVRYFDVWGQGTLVTVSS
VL: DIVLTQSPATLSLSPGERATLSCRASQSVSSSYLAWYQQKPGQAPRLLIYGASSRATGVPARFSGSGSGTDFTLTISSLEPEDFATYYCLQIYNMPITFGQGTKVEIKR
For B1, the binding result in assay [1] and in assay [2] was “binds” in each case.
